The values that follow come from patent publication US20070043102A1, “Oral suspension of tegaserod” (priority 2003, published 2007).

This data set in a line: Masking of the bitter taste of tegaserod (palatability, subjective impression of one test person). The method, then: The palatability of the resulting suspensions is determined by the subjective impression of one test person. Thus, it is found by this evaluation that the bitter taste of tegaserod is masked in apple juice and in orange juice but not in water.

For the compound `CCCCCNC(=N)NN=Cc1c[nH]c2ccc(OC)cc12` [Tegaserod, 3-(5-methoxy-1H-indol-3-yl-methylene)-N-pentylcarbazimidamide], the bitter taste masked entry by setting is: (in apple juice) “masked”; (in orange juice) “masked”; (in water) “not”.
